Assay results taken from patent US20070243194A1.
Results are given in words; binding and its absence hold for the method and conditions named. Binding seen in cells or lysates may run through a third protein. Some entries that bind do so weakly or less than the wild type.

Amino acid sequences for entries named in this document (tags omitted). Residues count along the entry.
UniProt P27986, residues 2-724: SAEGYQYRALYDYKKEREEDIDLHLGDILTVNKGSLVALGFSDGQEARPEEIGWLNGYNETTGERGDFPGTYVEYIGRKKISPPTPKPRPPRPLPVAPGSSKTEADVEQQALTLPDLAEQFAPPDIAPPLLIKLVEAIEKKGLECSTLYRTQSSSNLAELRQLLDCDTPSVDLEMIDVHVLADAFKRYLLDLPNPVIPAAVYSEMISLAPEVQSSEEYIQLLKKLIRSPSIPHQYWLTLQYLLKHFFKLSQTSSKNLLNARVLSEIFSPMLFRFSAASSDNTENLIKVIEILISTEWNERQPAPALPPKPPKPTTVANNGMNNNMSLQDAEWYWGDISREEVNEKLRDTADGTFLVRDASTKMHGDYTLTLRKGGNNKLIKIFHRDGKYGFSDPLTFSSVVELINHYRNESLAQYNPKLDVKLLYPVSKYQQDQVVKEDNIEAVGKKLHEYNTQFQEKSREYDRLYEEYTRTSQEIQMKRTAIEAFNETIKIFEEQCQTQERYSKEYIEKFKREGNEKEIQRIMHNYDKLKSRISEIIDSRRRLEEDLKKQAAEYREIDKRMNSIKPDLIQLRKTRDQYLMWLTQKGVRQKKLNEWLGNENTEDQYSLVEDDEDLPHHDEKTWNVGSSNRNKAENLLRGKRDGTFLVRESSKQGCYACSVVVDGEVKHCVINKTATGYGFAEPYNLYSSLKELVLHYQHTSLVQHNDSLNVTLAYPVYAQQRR
UniProt P35568: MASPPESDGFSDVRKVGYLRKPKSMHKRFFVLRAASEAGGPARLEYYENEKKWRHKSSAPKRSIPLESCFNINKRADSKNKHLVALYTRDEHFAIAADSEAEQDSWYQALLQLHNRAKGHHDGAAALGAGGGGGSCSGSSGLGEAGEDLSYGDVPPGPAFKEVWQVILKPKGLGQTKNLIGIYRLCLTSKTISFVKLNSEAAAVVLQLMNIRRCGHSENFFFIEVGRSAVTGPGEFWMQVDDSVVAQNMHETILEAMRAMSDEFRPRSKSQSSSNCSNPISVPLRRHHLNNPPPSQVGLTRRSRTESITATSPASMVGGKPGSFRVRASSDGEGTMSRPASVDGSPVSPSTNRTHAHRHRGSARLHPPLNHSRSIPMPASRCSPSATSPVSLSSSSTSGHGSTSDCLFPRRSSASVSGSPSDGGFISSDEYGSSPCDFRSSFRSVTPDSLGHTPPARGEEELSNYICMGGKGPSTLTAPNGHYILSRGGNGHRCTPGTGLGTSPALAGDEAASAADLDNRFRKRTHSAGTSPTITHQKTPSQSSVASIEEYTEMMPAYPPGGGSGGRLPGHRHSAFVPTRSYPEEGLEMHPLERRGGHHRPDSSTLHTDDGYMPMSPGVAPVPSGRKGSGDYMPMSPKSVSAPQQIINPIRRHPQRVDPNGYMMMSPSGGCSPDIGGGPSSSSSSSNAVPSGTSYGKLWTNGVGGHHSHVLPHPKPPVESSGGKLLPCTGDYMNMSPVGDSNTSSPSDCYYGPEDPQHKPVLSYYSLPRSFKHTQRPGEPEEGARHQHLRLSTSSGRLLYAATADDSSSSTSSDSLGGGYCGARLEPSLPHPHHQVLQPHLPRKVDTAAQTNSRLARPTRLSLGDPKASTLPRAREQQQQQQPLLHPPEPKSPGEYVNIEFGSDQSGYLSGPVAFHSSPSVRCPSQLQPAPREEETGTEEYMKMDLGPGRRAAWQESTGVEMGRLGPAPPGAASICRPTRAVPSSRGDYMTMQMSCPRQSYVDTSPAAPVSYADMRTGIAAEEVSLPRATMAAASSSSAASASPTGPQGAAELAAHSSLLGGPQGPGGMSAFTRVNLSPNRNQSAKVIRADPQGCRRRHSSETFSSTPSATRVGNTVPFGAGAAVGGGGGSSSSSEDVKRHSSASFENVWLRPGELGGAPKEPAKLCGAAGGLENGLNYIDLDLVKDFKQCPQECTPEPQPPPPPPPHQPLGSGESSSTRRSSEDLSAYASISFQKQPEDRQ

Key:
[1] = target: p85 regulatory subunit of PI3K (human) (UniProt P27986); assay: co-immunoprecipitation with anti-p85 antibody from cell lysates, western blot for IRS-1 and p85
[2] = target: p85 regulatory subunit of PI3K (human) (UniProt P27986); assay: co-immunoprecipitation with anti-p85, Western blot

binding [1]: binds
binding [2]: binds
Substance: insulin receptor substrate (IRS-1) (from UniProt P35568 1-1242)
